One substance from paper PMC8564726, “Heterodimerization of H3K9 histone methyltransferases G9a and GLP activates methyl reading and writing capabilities” (The Journal of Biological Chemistry, 2021) can be followed below.

By UniProt entry, the sequences of proteins in these tests, tags left out.
UniProt Q9Z148: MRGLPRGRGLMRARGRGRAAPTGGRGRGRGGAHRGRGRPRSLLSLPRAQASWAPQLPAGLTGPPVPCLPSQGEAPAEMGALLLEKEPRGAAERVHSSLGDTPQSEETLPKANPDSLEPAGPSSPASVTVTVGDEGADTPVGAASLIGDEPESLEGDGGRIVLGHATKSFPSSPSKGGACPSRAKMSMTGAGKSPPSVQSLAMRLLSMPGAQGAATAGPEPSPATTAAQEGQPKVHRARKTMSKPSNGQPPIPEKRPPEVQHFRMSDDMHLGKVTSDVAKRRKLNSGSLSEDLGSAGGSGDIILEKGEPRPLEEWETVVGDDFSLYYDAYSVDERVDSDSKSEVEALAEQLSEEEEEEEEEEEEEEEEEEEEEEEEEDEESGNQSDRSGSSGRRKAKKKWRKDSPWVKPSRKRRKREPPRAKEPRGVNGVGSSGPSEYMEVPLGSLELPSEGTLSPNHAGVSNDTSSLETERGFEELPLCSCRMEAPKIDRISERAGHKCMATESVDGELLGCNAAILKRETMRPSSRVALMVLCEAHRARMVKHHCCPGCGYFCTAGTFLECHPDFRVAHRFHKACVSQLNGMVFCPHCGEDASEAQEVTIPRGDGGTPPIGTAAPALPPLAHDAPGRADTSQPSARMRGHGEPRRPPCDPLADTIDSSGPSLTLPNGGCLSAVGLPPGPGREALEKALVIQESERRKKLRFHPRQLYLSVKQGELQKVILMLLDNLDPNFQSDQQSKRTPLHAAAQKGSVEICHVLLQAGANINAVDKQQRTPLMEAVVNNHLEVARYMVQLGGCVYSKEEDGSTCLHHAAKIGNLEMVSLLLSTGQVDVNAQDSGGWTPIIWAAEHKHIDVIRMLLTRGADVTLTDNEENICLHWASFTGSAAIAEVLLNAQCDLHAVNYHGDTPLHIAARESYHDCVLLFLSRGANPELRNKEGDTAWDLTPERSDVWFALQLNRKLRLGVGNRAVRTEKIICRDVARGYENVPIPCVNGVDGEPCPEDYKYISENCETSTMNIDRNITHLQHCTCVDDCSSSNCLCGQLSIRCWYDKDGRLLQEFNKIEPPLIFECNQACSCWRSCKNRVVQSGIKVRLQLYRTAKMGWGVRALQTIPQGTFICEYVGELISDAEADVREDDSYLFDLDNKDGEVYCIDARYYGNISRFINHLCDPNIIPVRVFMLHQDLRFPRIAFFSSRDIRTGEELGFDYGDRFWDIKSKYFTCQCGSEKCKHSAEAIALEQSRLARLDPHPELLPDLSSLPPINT

These are yes or no findings as the source states them, for the method shown. Binding seen in cells or lysates may run through a third protein. Some binding calls cover weakened binding; strength is not graded here.

In the assay the target is full-length G9a (UniProt Q9Z148). In words: pull-down; full-length proteins produced in insect cells; complex retention after sequential affinity purification.

For “full-length G9a (from UniProt Q9Z148 1-1263) (enzyme)”, the binding result was “binds”.
